Measured values as given in patent publication US20140378502A1, “Par1 Inhibitors for Use in the Treatment or Prevention of Paramyxoviridae Infections” (Université Laval, priority 2011, published 2014).
At least one peptide structure holds a part that was inferred or is arguable (an end, a ring closure or a residue). Where no end group is shown, it is not given here.

System: hMPV strain C-85473
Assay: hMPV-infected BALB/c mice, five-day pre-exposure prophylactic treatment regimen (experiment 2)
Assay type: in vivo
Details: 500 μM, 5-day treatment
Procedure: hMPV viral titers were determined by 10-fold serial dilutions of virus in 24-well plates containing LLC-MK2 cells. Before infection, cells were washed twice with phosphate-buffered saline (PBS) to remove residual serum proteins that could inhibit trypsin activity. Infected plates were incubated at 37° C. with 5% CO2 and replenished with 1 μl of fresh trypsin (0.0002%) every other day. hRSV viral titers were determined by 10-fold serial dilutions of virus in 24-well plates containing Hep2 cells. Before infection, cells were washed twice with phosphate-buffered saline (PBS). Infected plates were incubated at 37° C. with 5% CO2. […] The presence of hRSV was detected by an immuno-staining assay using a monoclonal goat Anti-Respiratory Syncytial Virus primary antibody and a donkey anti-Goat IgG Secondary Antibody, HRP conjugate (both from Cederlane). […] TCID50 were calculated by the Reed and Muench method.
In the second protocol, groups of 18 4-6-week-old BALB/c mice (Charles River Laboratories) were infected intranasally with 6-8×10^5 TCID50 hMPV strain C-85473 in 25 μl of OptiMEM™ supplemented with the PAR-1 agonist, PAR-1 antagonist or control peptide at a final concentration of 500 μM. […] The animals were evaluated on a daily basis for mortality, weight loss, and the presence of symptoms. […]

FTLLR-NH2 [control peptide, FTLLR-NH2]
pulmonary inflammation (histopathology) (day 5 post hMPV infection, infected treated vs infected untreated mice): similar
weight loss (and symptoms) (hMPV-infected mice, vs infected untreated mice): comparable weight loss to infected/untreated mice
